Values from PubChem BioAssay AID1259254 (NCATS, 2017)
The whole screen tested about 59,000 reagents; shown is a part drawn at random. About 1,550 of all reagents (2.6%) were called active. 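G2 share is only a proxy for re-replication; each gene was hit by three separate siRNAs, and active genes were retested.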 The numbers tell different reagents against one gene apart. Further read-outs or replicates are left out here. Not stated in the record: the amount of reagent.

- Assay: 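Gene knock-downs that lead to re-replication, shown by excess G2 DNA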 (primary screen)
- Cell system: human HCT116 colorectal cancer cells
- Reagent: single siRNA against human genes
- Time to read-out: 3 days
- Measured: 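Nuclei stained with Hoechst and imaged; cell-cycle phase assigned by DNA content; G2 share scaled per plate, non-targeting siRNA 0%, GMNN siRNA 100%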
- Scale: G2 robust z-score and G2 cells, % of GMNN control: higher = more G2 cells, more excess DNA replication
- Call rule: 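Active siRNAs have a G2 robust z of 5 or more median absolute deviations over the median, which in these data means about 38% or higher of GMNN control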

How did the screen score FCRL1 (Fc receptor like 1) #1?
G2 robust z-score: 0.828; G2 cells, % of GMNN control: 8.8; Outcome: inactive

With FCRL1 (Fc receptor like 1) #2, how do the results read?
G2 robust z-score: -0.588; G2 cells, % of GMNN control: -1.17; Outcome: inactive

What did the screen give for FCRL1 (Fc receptor like 1) #3?
G2 robust z-score: 0.865; G2 cells, % of GMNN control: 9.05; Outcome: inactive

For TPX2 (TPX2 microtubule nucleation factor) #1, what does the deposit list?
G2 robust z-score: 20.4; G2 cells, % of GMNN control: 146; Outcome: active

For TPX2 (TPX2 microtubule nucleation factor) #2, what does the deposit list?
G2 robust z-score: 13.7; G2 cells, % of GMNN control: 99.7; Outcome: active

What is on record for TPX2 (TPX2 microtubule nucleation factor) #3?
G2 robust z-score: 19.3; G2 cells, % of GMNN control: 138; Outcome: active

Entries above called active:
TPX2 (TPX2 microtubule nucleation factor) #1 — G2 robust z-score = 20.4; G2 cells, % of GMNN control = 146; Outcome = active
TPX2 (TPX2 microtubule nucleation factor) #2 — G2 robust z-score = 13.7; G2 cells, % of GMNN control = 99.7; Outcome = active
TPX2 (TPX2 microtubule nucleation factor) #3 — G2 robust z-score = 19.3; G2 cells, % of GMNN control = 138; Outcome = active

Additional records follow.
What did the screen give for FITM2 (fat storage inducing transmembrane protein 2) #1?
G2 robust z-score: 0.111; G2 cells, % of GMNN control: 3.75; Outcome: inactive

What did the screen give for FITM2 (fat storage inducing transmembrane protein 2) #2?
G2 robust z-score: 0.33; G2 cells, % of GMNN control: 5.29; Outcome: inactive

With FITM2 (fat storage inducing transmembrane protein 2) #3, what does the deposit list?
G2 robust z-score: -0.634; G2 cells, % of GMNN control: -1.49; Outcome: inactive

For PRKCG (protein kinase C gamma) #1, how do the results read?
G2 robust z-score: -1.15; G2 cells, % of GMNN control: -5.12; Outcome: inactive

For PRKCG (protein kinase C gamma) #2, what was measured?
G2 robust z-score: 0.867; G2 cells, % of GMNN control: 9.06; Outcome: inactive

For PRKCG (protein kinase C gamma) #3, what does the deposit list?
G2 robust z-score: -0.18; G2 cells, % of GMNN control: 1.7; Outcome: inactive

What is on record for COL6A4P2 (collagen type VI alpha 4 pseudogene 2) #1?
G2 robust z-score: -0.461; G2 cells, % of GMNN control: -0.275; Outcome: inactive

For COL6A4P2 (collagen type VI alpha 4 pseudogene 2) #2, what does the deposit list?
G2 robust z-score: -0.462; G2 cells, % of GMNN control: -0.286; Outcome: inactive

What did the screen give for COL6A4P2 (collagen type VI alpha 4 pseudogene 2) #3?
G2 robust z-score: 0.992; G2 cells, % of GMNN control: 9.94; Outcome: inactive

How did the screen score PTPN9 (protein tyrosine phosphatase non-receptor type 9) #1?
G2 robust z-score: 5.54; G2 cells, % of GMNN control: 41.9; Outcome: active

For PTPN9 (protein tyrosine phosphatase non-receptor type 9) #2, what does the deposit list?
G2 robust z-score: -0.408; G2 cells, % of GMNN control: 0.099; Outcome: inactive

What did the screen give for PTPN9 (protein tyrosine phosphatase non-receptor type 9) #3?
G2 robust z-score: 0.128; G2 cells, % of GMNN control: 3.87; Outcome: inactive
